# Data: PubChem BioAssay AID1259415 (National Center for Advancing Translational Sciences (NCATS), 2018)
# Several values for one entry are separate records, joined by “and”; a condition that tells them apart may be missing. Equal entries are not always repeated. About 18,000 (4.4%) of roughly 410,000 compounds were called active. This list was built around the results that the source calls inconclusive (neither active nor inactive); the mix of calls is not that of the screen. No stated cut-off is given here; in the data, active means activity change below about -60%; inconclusive means no clear call, values can overlap the other calls; inactive means above about -39%. The source holds several records for some structures; these can differ, active in one and inactive in another.
# Assay: qHTS Assay for inhibitors of the human cytomegalovirus (HCMV)
# Conditions: HFF cells, HCMV-luciferase reporter, 72 h; at 57.5 µM; stronger effect = lower value
# Summary of the method: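 Screen run at 2 compound doses on HFFs infected with reporter HCMV, MOI 1 PFU/cell. Luciferase activity from cell lysates at 72 h post infection gave inhibition relative to buffer-only and Salinomycin wells.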
# On the % scale 0 is the no-effect control and ±100 the full control effect.
row,Structure (SMILES),"activity change, negative = inhibition"
1,C=C(C)c1cccc(C(C)(C)NC(=O)N2CCN(CC)CC2)c1,inactive: 36%
2,COc1cc(SC)ccc1C(=O)Nc1ccc(S(=O)(=O)N2CCCC2)cc1,inconclusive: -41.8%
3,COc1ccc(OCCNc2cc(N3CCCCC3)ccc2[N+](=O)[O-])cc1,inconclusive: -56%
4,CC(=O)c1ccc(NC(=O)Cn2c(=O)c3cccn3c3ccccc32)cc1,inconclusive: -42.5%
5,COC(=O)Cc1[nH]n(-c2nc3ccccc3s2)c(=O)c1C(C)=Nc1ccc(OC)cc1,active: -94.3%
6,CCNCc1nc2cc(Cl)ccc2c(=O)[nH]1,active: -69.1%
7,CCOc1cccc(CNc2ccc(O)cc2)c1OCc1ccc(Cl)cc1Cl,inconclusive: -43.4%
8,COC(=O)CCN(C(=O)c1cccc([N+](=O)[O-])c1)c1ccccn1,inconclusive: -43.1%
9,COCCCn1c(=O)/c(=C\c2ccc(OC(F)F)c(OC)c2)s/c1=C(/C#N)C(N)=O,inconclusive: -50.8%
10,COC1=CC(=O)C(OC)=C(OC)C1=O,inconclusive: -49.3%
11,CC(C)C1Oc2ccccc2N(CC(=O)N(Cc2ccccn2)CC2CCCO2)C1=O (stereo not drawn),inactive: 13.9%
12,CCCc1cc(C(=O)NNC(=S)NCC)c2ccccc2n1,inactive: -35%
13,CCOc1ccc(CNC(=O)CSc2nnc(C)c3c(C)n(-c4ccccc4)nc23)cc1,inconclusive: -42.8%
14,O=C(NC1CCCC1)C(C1CC1)n1c(C2CC2)nc2ccccc21 (stereo not drawn),inactive: 71.5%
15,CCc1ccccc1N1C(=O)N(Cc2ccccc2C)c2ccccc2S1(=O)=O,active: -105%
16,Cc1cccc(N2CCN(C(=O)c3c(C)oc4ncnc(N5CCCCC5)c34)CC2)c1C,inactive: -11.5%
17,Cc1ccc(C)c(Nc2nc3c(S(=O)(=O)c4ccc(C(C)C)cc4)nnn3c3ccsc23)c1,active: -71%
18,CCc1ccc(C2CC(=O)Nc3cc4c(cc32)OCO4)cc1 (stereo not drawn),inactive: -16.2%
19,Cc1ccc(C2C(N)C(=O)N2c2ccc(C)cc2)cc1 (stereo not drawn),inactive: -31.2%
20,CC(=O)Nc1ccc(Nc2cc(C)nc3c(-c4ccc(Cl)cc4)cnn23)cc1,active: -70.1%
21,COc1ccc(-n2ncc3c(=O)n(CC(=O)Nc4ccc5c(c4)OCCO5)cnc32)cc1,active: -60.1%
22,Cc1ccc(CCN2CC(C(=O)N3CCN(c4ccc(F)cc4)CC3)CC2=O)cc1 (stereo not drawn),inconclusive: -41.9%

row,Structure (SMILES),"activity change, negative = inhibition"
1,N#CC1=C(N)N=C(SCc2cccc3ccccc23)C(C(N)=O)C12CCCCC2 (stereo not drawn),inactive: -28.9%
2,COc1ccc(OCC(=O)Nc2cc(OC)cc(OC)c2)cc1,inconclusive: -53.6%
3,Cn1c(=O)c2c(nc3n2CC(COc2ccccc2)O3)n(C)c1=O (stereo not drawn),inactive: -1.61%
4,C/C(=N\NC(=O)c1ccn(C)n1)c1ccc(NC(=O)C2CCC2)cc1,inactive: 20.6%
5,CCOc1ccc(N(C(C)C(=O)NN=C2CCCCCCC2)S(C)(=O)=O)cc1 (stereo not drawn),inconclusive: -43.4%
6,O=C1/C(=C/c2ccc3c(c2)OCO3)SC(=S)N1CCC(=O)N(CCO)c1ccccc1,active: -67.6%
7,Oc1cccnc1CN1CCOCC1,inconclusive: -57%
8,CCc1ccccc1Oc1nc(NCc2ccccc2)nc2ccsc12,inactive: -21.5%
9,CCOC(=O)c1ccc(NC(=S)NNC(C)(C)C)cc1,active: -74.3%
10,O=C(NN=Cc1ccccc1)C(Oc1ccccc1)c1ccccc1 (stereo not drawn),inconclusive: -58.6%
11,Cc1c(Cl)cccc1NC(=O)CNC(=O)c1ccccc1F,inconclusive: -56.6%
12,Cn1c(=O)n(Cc2ccc(F)cc2)c(=O)c2c1nc1n2CCN1Cc1ccco1,inconclusive: -47.6%
13,CSc1cccc(NC(=O)C2C3C=CC4(O3)C2C(=O)N(CCCN2CCOCC2)C4C(=O)NC2CCCCC2)c1 (stereo not drawn),inconclusive: -43.3%
14,Cc1ccccc1-c1nc(-c2ccc(NC(=O)c3ccc4c(c3)OCO4)cc2)no1,active: -78.6%
15,N#C/C(=C\c1coc2ccc(O)cc2c1=O)C(=O)Nc1nc2ccccc2s1,active: -73.1%
16,CCOC(=O)C1(Cc2ccc(OC)cc2)CCN(C(=O)CN2CCOC2=O)CC1,inconclusive: -46.9%
17,Cc1ccc(/C=C/c2nc3ccccc3[nH]2)cc1,active: -91.2%
18,CCOc1cc2c(cc1O)C(=NOC)CC1C2CCC2(C)C(O)CCC12 (stereo not drawn),active: -72.6%
19,O=C(NCCCn1ccnc1)/C(=C/c1ccccc1)NC(=O)c1ccccc1,inconclusive: -50.2%
20,Cc1ccc(S(=O)(=O)NC2CCCC2)cc1C,inactive: -13.6%
21,CC(Oc1ccc(Br)cc1Cl)C(=O)Nc1ccncc1 (stereo not drawn),inconclusive: -57.1%
22,Cc1cncn1CCc1nc2c3ccccc3nc(SCC(=O)Nc3cccc(Cl)c3)n2n1,active: -105%

# Compounds shown so far with a furan ring, fused or not:
row,Structure (SMILES),"activity change, negative = inhibition"
16,Cc1cccc(N2CCN(C(=O)c3c(C)oc4ncnc(N5CCCCC5)c34)CC2)c1C,inactive: -11.5%
12,Cn1c(=O)n(Cc2ccc(F)cc2)c(=O)c2c1nc1n2CCN1Cc1ccco1,inconclusive: -47.6%

# Further records:

row,Structure (SMILES),"activity change, negative = inhibition"
1,O=C(c1ccc(CSc2nc3ccncc3n2Cc2cccc(F)c2)cc1)N1CCCCCC1,inconclusive: -40.9%
2,CCCS(=O)(=O)N1CCN(CCN2C(=O)c3cccc4cccc(c34)C2=O)CC1,inconclusive: -50.5%
3,O=C1CCCC/C1=C\Nc1ccc(C(=O)O)c(O)c1,inconclusive: -44.6%
4,COC(/C(C)=C/C=C/C(C)=C/c1coc(C)n1)C(C)C1CC(O)C2(C)OC2C=CC(C)C2CC(CC(=O)O2)CC2OC2C(=O)O1 (stereo not drawn),active: -80.4%
5,CCOc1ccc(S(=O)(=O)Nc2ccc3c(c2)N(C(C)=O)CCC3)cc1,inactive: 87.9%
6,Cc1cccn2cc(CSc3nnc(Nc4ccc(C(C)C)cc4)s3)nc12,inactive: -4.71%
7,O=C(Cn1c(-c2cccs2)cc2ccccc21)NCCc1ccc(Cl)cc1,active: -112%
8,Cc1nc(SCC(=O)Nc2ccccc2Cl)oc1C,inconclusive: -41.8%
9,Brc1ccc(-c2cn3nc4c(nc3n2)CCCC4)cc1,inconclusive: -59.8%
10,COc1ccccc1NC(=O)NCCN1CCN(c2cccc(Cl)c2)CC1,inactive: -5.33% and inactive: 39.7%
11,Cc1sc2ncnc(OCC(=O)NC(C)C(C)C)c2c1C (stereo not drawn),inconclusive: -46.3%
12,Cc1c(C(=O)NCc2c(F)cc(F)cc2F)oc2ccc(S(=O)(=O)N3CCOCC3)cc12,inconclusive: -49%
13,Cc1c[nH]c(=O)c([N+](=O)[O-])c1,inconclusive: -47.3%
14,Cn1c(=O)nc2n(Cc3ccccc3)c3ccccc3cc-2c1=O,inactive: -9.8%
15,O=C1/C(=C/c2ccccc2Cl)N2CCC1CC2,active: -66.8%
16,CCOC(=O)c1cc(NC(=O)c2cnccn2)cc(C(=O)OCC)c1,active: -92.5%
17,O=c1[nH]c(-c2ccncc2)nc2ccccc12,inconclusive: -58.2%
18,O=C(CN1C(=O)NC(c2ccccc2)(c2ccccc2)C1=O)NCc1ccco1,inconclusive: -55.7%
19,Cc1nn2c(c1-c1ccc(Cl)cc1)N=C(c1ccco1)CC2c1ccccc1 (stereo not drawn),inconclusive: -40.9%
20,CCOC(=O)c1cc2c(=O)n3ccccc3nc2n(CC(C)C)c1=NC(=O)c1c(-c2c(F)cccc2Cl)noc1C,active: -65.2%
21,O=C(NCc1nc2ccccc2[nH]1)C1=C[C@H](c2coc3ccccc3c2=O)C[C@H](OCc2ccc(CO)cc2)O1,inconclusive: -48.3%
22,OCC1(CCOc2ccccc2)CCN(C2Cc3ccccc3C2)CC1,inactive: -36.6%

row,Structure (SMILES),"activity change, negative = inhibition"
1,CCCOc1cccc(C(=O)N(Cc2ccc(C)o2)C2CCS(=O)(=O)C2)c1 (stereo not drawn),inconclusive: -54.5%
2,Cc1cc(Br)ccc1NC(=S)Nc1cccc([N+](=O)[O-])c1,active: -63.7%
3,Cc1cccc(NC(=O)c2cc(-c3cc(C)cc(C)c3O)n[nH]2)c1,inconclusive: -40.8%
4,O=c1[nH]nc(N/N=C/c2ccccc2OC(F)F)c(=O)[nH]1,inconclusive: -40.3%
5,Cc1ccc(C(C(=O)NCc2ccco2)N(C(=O)Cc2cccs2)c2cccnc2)cc1 (stereo not drawn),inconclusive: -54.2%
6,CCN(CC)c1ccc(NC(=O)CSc2nc(C3CC3)nc3ccccc23)cc1C,inconclusive: -42.8%
7,COc1c(Cl)ccc(Cl)c1C(=O)OCC(=O)O,inconclusive: -44.6%
8,CCCCN(CC)CCNC(=O)Cn1cc2c(n1)-c1c(oc(C(=O)N3CCCC3)c1C)CC2,inconclusive: -54.2% and active: -61.5%
9,Cc1[nH]c2ccc3ccccc3c2c(=O)c1C/C=C/Cl,active: -89.1%
10,Cc1cc(Cl)c(OCCOCCN2CCC(C)CC2)c(Br)c1,inconclusive: -41.1%
11,CCN(CC)P(=O)(Nc1cccc(C(F)(F)F)c1)c1ccc(N(C)C)cc1NC(=O)c1ccco1 (stereo not drawn),inconclusive: -50.2%
12,COc1ccc(NC(=O)CSc2ncccc2C(=O)OC(C)C)cc1OC,active: -87.4%
13,Cc1oc2c(c(C)cc3oc(=O)c(CC(=O)N[C@@H](C)C(=O)O)c(C)c32)c1C,inconclusive: -41.6%
14,O=C(NCCc1ccc(S(=O)(=O)N2CCCC2)cc1)c1cccs1,inconclusive: -59.6%
15,COc1ccc(-c2cc(C(=O)Nc3c(C)nn(Cc4ccc(C)cc4)c3C)no2)cc1OC,inactive: -26.8%
16,CCc1ccc(NC(=S)N2CCCC(C(F)(F)F)C2)cc1 (stereo not drawn),inactive: -20.7%
17,CO/N=C(/CN1CCCCC1)c1ccc(Cl)cc1,inconclusive: -44.9%
18,CN(C)S(=O)(=O)c1ccc2c(c1)nc(CCC(=O)NCc1ccc(Cl)cc1)n2C,inconclusive: -53.1%
19,CCOC(=O)Cn1c(=O)c2c(nc3n2CCN3c2ccc(CC)cc2)n(C)c1=O,inactive: 5.01%
20,CCOc1ccc2oc(C(=O)NCC3CCCO3)c(C)c2c1 (stereo not drawn),inconclusive: -41.7%
21,CC1=C(C#N)C(C)(C)C(C#N)=C(C)N1,inactive: 0.704%
22,CC1(C)CSC(=NCCc2ccccc2)N1,inactive: -1.36%
